Here are results for two molecules from patent publication US20210301021A1 (NANJING GENSCRIPT BIOTECH, published 2021).

The chains behind the UniProt entries cited, without tags or fusion partners. Residues count along the entry.
UniProt P16410, residues 36-161: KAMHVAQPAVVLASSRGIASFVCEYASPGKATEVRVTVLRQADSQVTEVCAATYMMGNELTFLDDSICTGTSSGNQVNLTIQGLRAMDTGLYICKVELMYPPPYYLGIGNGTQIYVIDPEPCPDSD

No constants are given. Whether binding was seen depends on the method and setting. Some binding calls cover weakened binding; strength is not graded here.

Assay [1] has as its target antigen of the thermal stability ELISA (CTLA4; construct not stated) (UniProt P16410). In words: ELISA after heat treatment (40 C for up to 14 days). On the technique in general: In an ELISA, binding on a coated surface is turned into a signal by an enzyme label.
For assay [2] the target is unchanged. In words: ELISA on the antigen after treatment at 40 C for 7 days (D7) and 14 days (D14), with the untreated sample (D0) as control.
The target is the same in assay [3]. In words: ELISA on the antigen after treatment for 20 minutes at room temperature, 30, 40, 50 or 60 C.
The target is the same in assay [4]. In words: ELISA after heat treatment (40 C for up to 14 days; temperature gradient for 20 minutes).

B1: Chimeric antibody (antibody, V domains shown)
VH: QVHLQQSGDVLVKPGASVNLSCKASGYTFTSYWINWIKQRPGQGLEWIGRIAPGSGTTYYNEMFTGKATLTVVTSSTTAYIQLSSLSFEDSAVYFCARGDYFDYWDQGTTLTVSS
VL: QIVLTQSPAIMSASPGGKVTITCSASKSVSYIHWFQQKPGTSPKLLIYDTSTLASGVPPRFSGSGSGPSYSLTISRMEAEDAATYYCQQRTTYPLTFGGGTKLEVR
notes: also called Chimeric IgG
As to B1, the binding result in assay [1] and in assay [2] was “binds” throughout.

B2: AH01674 humanized anti-human CTLA4 monoclonal antibody (human IgG1/kappa) (antibody, V domains shown)
VH: QVQLVQSGAEVKKPGASVKVSCKASGYTFTSYWINWVRQAPGQGLEWMGRIAPGSGTTYYNEMFTGRVTMTRDTSTSTAYMELSSLRSEDTAVYYCARGDYFDYWGQGTMVTVSS
VL: DIQLTQSPSFLSASVGDRVTITCSASKSVSYIHWYQQKPGKAPKLLIYDTSTLASGVPPRFSGSGSGPEFTLTISSLQPEDFATYYCQQRTTYPLTFGQGTKLEIK
notes: also called AH1674
With B2, the binding result in assay [3], in assay [4] and in assay [2] was “binds” in each case.
